Structures can show the parent of a compound that is named as a salt. Some of these results come from one statement about several compounds together.
Experiment: Thermo-rheometer viscosity of WITC (PCL), unplasticized or blended with plasticizing agents / premixes
Assay type: physicochemical
Details: 1:1 weight ratio, measured at 50° C.
Procedure: Thermo-rheometer: Thermo Scientific (Germany) Haake Mars III, with a C20/1° spindle, a gap of 0.052 mm, and a shear rate of 10 sec^−1. […]
Samples corresponding to the above-described premixes were additionally tested for their viscosity at the end of the mixing step, when the WITCs were at least homogeneously blended with the polar-carrier-insoluble materials, and in most case plasticized by the non-volatile liquids if present. Viscosity was determined as previously described at a shear rate of 10 sec^−1 over a range of temperatures between 20° C. and 80° C., and for all samples so tested the viscosity as measured at 50° C. was typically found to be of less than 10^6 mPa·s, being generally between 10^3 mPa·s and 10^5 mPa·s, often not exceeding 5×10^4 mPa·s, and many samples even having a viscosity of less 10^4 mPa·s.
In a first series of experiments, the viscosity was measured on blends of materials forming a homogeneous mass adapted for nano-sizing by the present methods. PCL and a non-volatile liquid or a fatty amine serving as SFA at various weight per weight ratios were combined in a glass vial and the sealed vials were placed in an oven pre-heated to 80° C. The PCL: non-volatile liquid ratios tested were 1:1 and 1:2.33 and the PCL: fatty amine ratios tested were 1:0.1, 1:0.33, 1:0.5 and 1:1. Following 1 hour of incubation under heat, the contents of the vials were mixed by hand for about 30 seconds, until clear solutions were obtained. The samples were allowed to cool down overnight (i.e., at least 12 hours) at room temperature so as to solidify.
Solid samples were then transferred to a rheometer where their respective viscosity was measured as a function of temperature between room temperature and 70° C. at a ramping up temperature of 10° C./min. The viscosities (or 2nd viscosities) of the samples as measured at 50° C. and 70° C. are summarized in Table 2-II(A), including in the first row the first viscosities of a reference sample made of PCL alone, unplasticized, under same conditions.

Molecule: CCCCOC(=O)CCCCC(=O)OCCCC [Cetiol ® B, Dibutyl adipate]
- second viscosity of PCL-14 plasticized with non-volatile liquid: less than 10^4 mPa·s

Molecule: CCCCCCCC(=O)O [caprylic acid]
- second viscosity of PCL-14 plasticized with non-volatile liquid: less than 10^4 mPa·s

Molecule: CC(C)=CCCC(C)CCO (stereo not drawn) [citronellol]
- second viscosity of PCL-14 plasticized with non-volatile liquid: less than 10^4 mPa·s

Molecule: O=C(O)C1CCCCC1 [cyclohexane-carboxylic acid]
- second viscosity of PCL-14 plasticized with non-volatile liquid: less than 10^4 mPa·s

Molecule: CCCCCCCC(=O)OC(=O)OC(=O)CCCCCCC [dicaprylyl carbonate]
- second viscosity of PCL-14 plasticized with non-volatile liquid: less than 10^4 mPa·s

Molecule: CC(C)c1cccc(=O)c(O)c1 [hinokitiol]
- second viscosity of PCL-14 plasticized with non-volatile liquid: less than 10^4 mPa·s

Molecule: C=CC(C)(O)CCC=C(C)C (stereo not drawn) [linalool]
- second viscosity of PCL-14 plasticized with non-volatile liquid: less than 10^4 mPa·s

Molecule: CC1CCC(C(C)C)C(O)C1 (stereo not drawn) [menthol]
- second viscosity of PCL-14 plasticized with non-volatile liquid: less than 10^4 mPa·s

Molecule: CC1COC(=O)O1 (stereo not drawn) [propylene carbonate]
- second viscosity of PCL-14 plasticized with non-volatile liquid: less than 10^4 mPa·s

Molecule: Cc1ccc(C(C)C)c(O)c1 [thymol]
- second viscosity of PCL-14 plasticized with non-volatile liquid: less than 10^4 mPa·s

Molecule: CCOC(=O)CC(O)(CC(=O)OCC)C(=O)OCC [triethyl citrate]
- second viscosity of PCL-14 plasticized with non-volatile liquid: less than 10^4 mPa·s

Molecule: terpinol
- second viscosity of PCL-14 plasticized with non-volatile liquid: less than 10^4 mPa·s

— patent US20250268840A1, “USE OF NANO-CARRIERS FOR DELIVERY OF ACTIVE AGENTS” (LANDA LABS (2012) LTD., priority 2022, published 2025)
